Reference: the supplement of paper PMC10626197
Some well-known active drugs show little effect in this data set, so a weak value is uncertain.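 The breast cancer cell line MCF7 was treated with drug pairs over a dose grid. Each plate included DMSO-only wells as the untreated reference and a doxorubicin series as the total-kill control. These viability readings have no hit threshold applied.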

Legend:
MCF7 [1] = test: cell viability relative to DMSO control (raw), single agent; higher = more viable cells; settings: exposure time 72 h
Procedure: (§1)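 MCF7 cells, 1000 cells/well in 384-well plates, single-agent wells of drug 2 (drug 1 at 0 µM) within 6x6 combination matrices (1:3 serial dilutions), 72 h at 37 °C. Viability read by CellTiter-Glo luminescence, 3 biological replicates. Normalised viability sets 0% at the highest doxorubicin dose and 100% at the 0,0 µM control per combination.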

MCF7 [2] = test: cell viability relative to DMSO control (raw); higher = more viable cells; settings: exposure time 72 h
Procedure: as §1, with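 “treated with 6x6 dose matrices” for “single-agent wells”, “pairs” for “2 (drug 1 at 0 µM) within 6x6 combination matrices”, “dilutions, DMSO as lowest dose) for” for “dilutions),”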

CCCNC(=O)c1cn2ncnc(Nc3cc(C(=O)NC4CC4)ccc3C)c2c1C
cell viability [%], MCF7 [1]
Settings	0.37037 µM	1.11111 µM	3.33333 µM	10 µM	30 µM
plate partner (at 0 µM): Cabazitaxel	94.5	96.1	93.3	83.6	81.2
plate partner (at 0 µM): Erlotinib	108	109	111	103	91.2
plate partner (at 0 µM): Mitoxantrone	92	88.2	88.1	83.2	73.4
plate partner (at 0 µM): Paclitaxel	88.7	94.5	91.1	80.4	82.8
plate partner (at 0 µM): Vincristine	99.7	99.8	93.4	87.4	82.5

CN(C)C1CCN(C(=O)c2ccc(NC(=O)Nc3ccc(-c4nc(N5CCOCC5)nc(N5CCOCC5)n4)cc3)cc2)CC1
cell viability [%], MCF7 [1]
Settings	0.0148148 µM	0.0444444 µM	0.133333 µM	0.4 µM	1.2 µM
plate partner (at 0 µM): Anastrozole	81.3	52.6	35.1	25.4	22.1
plate partner (at 0 µM): Cabazitaxel	77.3	59.1	40.7	29.3	29.3
plate partner (at 0 µM): ixabepilone	78.3	58.2	47.2	38.9	38.1

CN(C)C[C@@H]1CCn2cc(c3ccccc32)C2=C(C(=O)NC2=O)c2cn(c3ccccc23)CCO1
MCF7 [1], plate partner (at 0 µM): Abiraterone
Settings	cell viability [%]
0.123457 µM	87.5
0.37037 µM	90.7
1.11111 µM	95
3.33333 µM	80.3
10 µM	25.9

Cc1c(Cn2c(C)nc3c(C(=O)O)cc(N4CCOCC4)cc32)cccc1C(F)(F)F
MCF7 [1], plate partner (at 0 µM): Pazopanib
Settings	cell viability [%]
0.0123457 µM	90.2
0.037037 µM	91.3
0.111111 µM	88.1
0.333333 µM	86.5
1 µM	83

Cn1cc(-c2ccc3nnc(C(F)(F)c4ccc5ncccc5c4)n3n2)cn1
cell viability [%], MCF7 [1]
Settings	0.0617284 µM	0.185185 µM	0.555556 µM	1.66667 µM	5 µM
plate partner (at 0 µM): Docetaxel	112	112	112	106	102
plate partner (at 0 µM): Mitoxantrone	89.9	88	91.9	87.1	86.7
plate partner (at 0 µM): Vincristine	82.6	79.7	79	82.5	77.9

O=C(NOC[C@H](O)CO)c1ccc(F)c(F)c1Nc1ccc(I)cc1F
MCF7 [1], plate partner (at 0 µM): Vismodegib
Settings	cell viability [%]
0.0246914 µM	91.1
0.0740741 µM	87.6
0.222222 µM	91.6
0.666667 µM	85.3
2 µM	76.3

Nc1ncn([C@@H]2O[C@H](CO)[C@@H](O)[C@H]2O)c(=O)n1 [5-Azacytidine]
MCF7 [1], plate partner (at 0 µM): Methotrexate
Settings	cell viability [%]
0.123457 µM	101
0.37037 µM	104
1.11111 µM	108
3.33333 µM	102
10 µM	78.1

CC1=C(/C=C/C(C)=C/C=C/C(C)=C\C(=O)O)C(C)(C)CCC1 [13-cis-Retinoic acid]
MCF7 [1], plate partner (at 0 µM): Docetaxel
Settings	cell viability [%]
0.246914 µM	121
0.740741 µM	117
2.22222 µM	118
6.66667 µM	110
20 µM	105

COc1ccc2cccc(CCNC(C)=O)c2c1 [Agomelatine]
MCF7 [1], plate partner (at 0 µM): Raloxifene
Settings	cell viability [%]
0.123457 µM	111
0.37037 µM	118
1.11111 µM	126
3.33333 µM	118
10 µM	112

C=C1/C(=C\C=C2/CCC[C@]3(C)[C@@H]([C@H](C)CCCC(C)C)CC[C@@H]23)C[C@@H](O)C[C@@H]1O [Alfacalcidol]
cell viability [%], MCF7 [1]
Settings	0.617284 µM	1.85185 µM	5.55556 µM	16.6667 µM	50 µM
plate partner (at 0 µM): Abiraterone	99.4	89.9	95.9	75.9	7.34
plate partner (at 0 µM): Cabazitaxel	79.3	76.8	74.1	62	38.9
plate partner (at 0 µM): Crizotinib	85.4	82.4	73.2	78.4	76
plate partner (at 0 µM): Erlotinib	89.1	88.2	87.8	80.5	33
plate partner (at 0 µM): Gefitinib	87.7	86.4	85.4	74.5	67.6
plate partner (at 0 µM): Imatinib	74	69.1	74.4	68.7	52
plate partner (at 0 µM): Megestrol	94.2	87	91.4	93.3	12.3
plate partner (at 0 µM): Pazopanib	96.9	102	92.5	89.6	16.9
plate partner (at 0 µM): Vandetanib	87.1	86.3	80.6	75.8	65.3
plate partner (at 0 µM): Vemurafenib	102	99.3	96.1	83.8	1.04
plate partner (at 0 µM): ixabepilone	102	94	94.9	87.3	7.94

COc1cc(Nc2ncc3c(n2)-c2ccc(Cl)cc2C(c2c(F)cccc2OC)=NC3)ccc1C(=O)O [Alisertib]
cell viability [%], MCF7 [1]
Settings	plate partner (at 0 µM): Cabazitaxel	plate partner (at 0 µM): Imatinib	plate partner (at 0 µM): Megestrol	plate partner (at 0 µM): Mitoxantrone	plate partner (at 0 µM): Pazopanib	plate partner (at 0 µM): Vemurafenib	plate partner (at 0 µM): Vincristine	plate partner (at 0 µM): ixabepilone
0.0617284 µM	98.4	87.6	86.6	90.5	85.5	76.2	86.4	105
0.185185 µM	96.5	81.1	89.8	84.1	84.6	74.8	70.4	86.6
0.555556 µM	89.3	83.6	89	87.1	89.2	86.9	91.8	101
1.66667 µM	87.2	80.7	86.3	90	85.5	82.5	87.9	106
5 µM	84.6	77.6	90.3	92.7	83.3	73.9	90.5	103

N#CC1(c2ccc(NC(=O)c3cccnc3NCc3ccncc3)cc2)CCCC1 [Apatinib]
cell viability [%], MCF7 [1]
Settings	0.0617284 µM	0.185185 µM	0.555556 µM	1.66667 µM	5 µM
plate partner (at 0 µM): Erlotinib	112	116	114	120	114
plate partner (at 0 µM): Vemurafenib	117	110	121	109	94.9
plate partner (at 0 µM): ixabepilone	122	113	119	111	108

COc1ccc(CC2c3cc(OC)c(OC)cc3CC[N+]2(C)CCC(=O)OCCCCCOC(=O)CC[N+]2(C)CCc3cc(OC)c(OC)cc3C2Cc2ccc(OC)c(OC)c2)cc1OC (stereo not given) [Atracurium (besylate)]
MCF7 [1], plate partner (at 0 µM): Imatinib
Settings	cell viability [%]
0.246914 µM	100
0.740741 µM	108
2.22222 µM	96.2
6.66667 µM	98
20 µM	77.8

O=P(O)(O)C(O)(Cn1ccnc1)P(=O)(O)O [Zoledronic] + CCOC(=O)N1CCC(=C2c3ccc(Cl)cc3CCc3cccnc32)CC1 [Loratadine]
cell viability [%], MCF7 [2]
Settings	drug 2 concentration 0 µM	drug 2 concentration 0.0617284 µM	drug 2 concentration 0.185185 µM	drug 2 concentration 0.555556 µM	drug 2 concentration 1.66667 µM	drug 2 concentration 5 µM
drug 1 concentration 0.0493827 µM	95.1	97.2	99.4	98.5	90.2	78.8
drug 1 concentration 0.148148 µM	95.5	107	97.8	94	97	89.2
drug 1 concentration 0.444444 µM	95.2	99.2	96.1	96.3	88.2	82.02
drug 1 concentration 1.33333 µM	107	107	101	102	101	91.5
drug 1 concentration 4 µM	106	107	113	101	98.4	86.6

C/C(=C\c1csc(C)n1)[C@@H]1C[C@@H]2O[C@]2(C)CCC[C@H](C)[C@H](O)[C@@H](C)C(=O)C(C)(C)[C@@H](O)CC(=O)N1 [ixabepilone] + C=C1/C(=C\C=C2/CCC[C@]3(C)[C@@H]([C@H](C)CCCC(C)C)CC[C@@H]23)C[C@@H](O)C[C@@H]1O [Alfacalcidol]
cell viability [%], MCF7 [2]
Settings	drug 2 concentration 0 µM	drug 2 concentration 0.617284 µM	drug 2 concentration 1.85185 µM	drug 2 concentration 5.55556 µM	drug 2 concentration 16.6667 µM	drug 2 concentration 50 µM
drug 1 concentration 0.00185185 µM	92.9	82.3	93.5	90.5	69.9	0.778
drug 1 concentration 0.00555556 µM	100	102	98.3	93.4	78	0.904
drug 1 concentration 0.0166667 µM	97.7	92.3	94.5	99.1	79.2	0.704
drug 1 concentration 0.05 µM	108	108	103	102	93.8	0.579
drug 1 concentration 0.15 µM	114	111	113	111	77.1	0.767
